The source of these data is paper PMC3784504.

Results are given in words; binding and its absence hold for the method and conditions named. Binding seen in cells or lysates may run through a third protein. For some assays here: Binding can be weak; no strength is given. For some assays here: Sequences can lack the tags named with a protein.

Assay [1] concerns the target cohesin subunit stromalin (SA) (Drosophila (endogenous in embryos and S2 cells)). Briefly: co-IP; IPs of NAP1 and SA from pooled high molecular weight S-300 fractions 12-14 (about 1.5 MDa) of embryo nuclear extract; immunoblot.
For assay [2] the target is unchanged. The experiment in a line: condition: only S2 cell extracts denatured by 6M Urea; co-IP; denaturing IP of SA: S2 cells lysed in 6M Urea, 150 mM NaCl, 5 mM DTT, 50 mM Tris pH 7.6, step-wise dialysis to 2M urea, then HEMG/400; immunoblot.
For assay [3] the target is unchanged. The experiment in a line: co-IP; IP of SA or SMC1 from S2 cell extracts; cells mock-treated or depleted of NAP1 and/or PP2A by RNAi, with or without colchicine; immunoblot.
For assay [4] the target is unchanged. The experiment in a line: co-IP; IP of SA, NAP1 or PP2A from Drosophila embryo nuclear extract; washes with 600 mM KCl, 0.1% NP40; immunoblot; mock IP with pre-immune serum. (In general: Immunoblotting shows a protein as a band on a membrane.)
For assay [5] the target is unchanged. Briefly: co-IP; IP of SA or PP2A from Drosophila embryo nuclear extract; lower stringency washes, 200 mM KCl, 0.1% NP40; immunoblot.

B1: cohesin subunit SMC1 (protein, UniProt Q9VCD8 1-1238)
chain: MTEEDDDVAQRVATAPVRKPDDETAFLEYIEMENFKSYRGHIVVGPLKQFNAVIGPNGSGKSNFMDAISFVMGEKTSSLRVKRLNDLIHGSSIGKPVSRSCYVTAKFVLNEERHMDFQRAVIGGSSEYRINGESVSSSTYLNKLEKIGINVKAKNFLVFQGAVENIAMKTPKERTALFEEISGSGLLKDDYNRLKQEMIVAEEETQFTYQKKKGIAAERKEAKHEKMEADRYTRLQNEYNEKQVEYQLFRLFHVERDIRKFTSDLEVRQQEVKAVEQRKEAADEILREKKKDAGKITRDLAKIDQEIREFETQMNKRRPLYIKAKEKVTHCKKKLISLQKTLETAREADNAHQSDIRKLEKQLADVEALKKRFEDEIENESQRRGKSVNMEEGLVQEYDRLKQEAEATATQYRSELDSVNREQKSEQDTLDGETNRRASVEESFKKLTLQREEAVKRRDKLMDHIKSSQAALEEQNRIKDELRRDVGTSKEKIAEKQRELEDVRDQLGDAKSDKHEDARRKKKQEVVELFKKQVPGVYDRMINMCQPTHKRYNVAVTKVLGKFMEAIIVDTEKTARHCIQILKEQMLEVETFLPLDYLQVKPLKERLRNISDPRNVRLVFDVLKFEPQEIERAVLFATGNALVCETPEDAMKVAYEIDRSRFDALALDGTFYQKSGLISGGSHDLARKAKRWDEKHMAQLKMQKERLQEELKELVKKSRKQSELATVESQIKGLENRLKYSMVDLESSKKSISQYDNQLQQVQSQLDEFGPKILEIERRMQNREEHIQEIKENMNNVEDKVYASFCRRLGVKNIRQYEERELVMQQERARKRAEFEQQIDSINSQLDFEKQKDTKKNVERWERSVQDEEDALEGLKLAEARYLKEIDEDKEKMEKFKQDKQAKKQAVDDMEEDISKARKDVANLAKEIHNVGSHLSAVESKIEAKKNERQNILLQAKTDCIVVPLLRGSLDDAVRQSDPDVPSTSAAMENIIEVDYSSLPREYTKLKDDSAFKKTHEMLQKDLQSKLDVLERIQTPNMKALQKLDAVTEKVQSTNEEFENARKKAKRAKAAFERVKNERSSRFVACCQHISDAIDGIYKKLARNEAAQAYIGPDNPEEPYLDGINYNCVAPGKRFQPMNNLSGGEKTIAALALLFSTHSFHPAPFFVLDEIDAALDNTNIGKVASYIRDHTTNLQTIVISLKEEFYGHADALVGITPGEGDCLVSNVYIMDLTTFEDT
For B1, the binding entry is listed as “binds” in assay [1] and “no binding” in assay [2].

B2: histone chaperone NAP1 (protein, UniProt Q9W1G7 1-370)
chain: MDAPAEGHVDPESCNEIEDEKSGSDCQSMPAYMNSVMRRQYLQQMVKMLPAPVQNRIVFLKNLQLQHLNIEAQFFEDVYKLEQKYQVQYQPLFDKRREIIEGKVDPAEEKPQWKEPESSTDNEADAEHFREALSSLKSIPKDAKGIPGFWLTVFRNTAIMSEMVQPHDEPAIRKLIDISIKYDNGHSYTLEFHFDKNEYFSNSVLTKQYVLKSTVDPNDPFAFEGPEIYKCTGCTINWEKKMNLTVKTIRKKQKHKERGAVRTIVKQVPTDSFFNFFSPPEVPSDQEEVDDDSQQILATDFEIGHFLRARIIPKAVLYYTGDIVDDEDDEDEEEYDENEEDEYDDDDAPPPKGPKSAGIKKQSPNDCPNQ
With B2, the results for the binding entry in assay [3], in assay [4] and in assay [2] were “binds”, “binds” and “no binding”, respectively.

B3: histone chaperone ASF1 (protein, UniProt Q9V464 1-218)
chain: MAKVHITNVVVLDNPSSFFNPFQFELTFECIEELKEDLEWKMIYVGSAESEEHDQVLDTIYVGPVPEGRHIFVFQADPPDVSKIPEPDAVGVTIVLLTCSYRGQEFVRVGYYVNNDYADPEMRENPPTKPLFEKLTRNILASKPRVTRFKINWDYGHINGNGNGVENGHQDEMATDGPSTSEAASAVIHPEDDNSLAMPMENGIKALNENSNSLAMEC
Consider B3, for which, in assay [4], the binding entry is listed as “no binding”.

B4: MeiS332 (protein, UniProt Q24141 1-401)
chain: MGSKVEQQYKLLNAELMDQVQKQRLEIGEYRKRVISLEREIMDIREEHVLQNHRQRMENISIVRSLMLSLNVDSDSLAVRQEPAPAAQINRPSGPRRSSREICKDMRRTCALARTTRPISPRRSSSVTSTVSSTSRRSSAEVQSEVVTTRIPEDRRANKPTPPPRRPAELVFDEDDSDDDFDEAVSPVEETQTEQNEENNRLFSIIEENGSEGESTDSSSSCEAIYCDTTFESSPPNAQVTVTPSGRALREVDTNIPVAVSLSRGKETGKGSWLAISVAVEDSPQEPSIQCPRLAVTRPSQSSGIFPDVNGLTPRRSLFNGIGKMAGSTSTPKSFLVEEMPSIRTRSRTAANKKSENTDMSSSFCNNSARPSRSCRPTSLVEPSLKNKLRNGSKGKAKAKK
On to B4, for which the binding result in assay [5] and in assay [4] was “no binding” throughout.
